{"source": "ChEMBL document CHEMBL4196084", "about": "(Eur J Med Chem, 2018)", "key": {"in vitro [1]": {"experiment": "in vitro", "details": "PAMPA"}, "in vitro [2]": {"experiment": "in vitro", "details": "PAMPA", "remark": "listed apart in the source"}}}
{"smiles": "COc1cc2c(cc1OC)C(=O)C(CC1CCN(Cc3ccccc3)CC1)C2", "note": "(configuration not stated) [DONEPEZIL]", "values": [{"measurement": "Papp at 100 µM", "setting": "in vitro [1]", "value": 8.9, "unit": "×10⁻⁶ cm/s"}, {"measurement": "Papp at 100 µM", "setting": "in vitro [2]", "value": 6.8, "unit": "×10⁻⁶ cm/s"}]}
